Data from the supplement of paper PMC10849652.
The other results are listed elsewhere or left out.

Chains of the proteins cited; added tags and fusions are not shown. Lines headed by an entry give the natural chain unless they say otherwise; changes in a name come on top.
UniProt P17028: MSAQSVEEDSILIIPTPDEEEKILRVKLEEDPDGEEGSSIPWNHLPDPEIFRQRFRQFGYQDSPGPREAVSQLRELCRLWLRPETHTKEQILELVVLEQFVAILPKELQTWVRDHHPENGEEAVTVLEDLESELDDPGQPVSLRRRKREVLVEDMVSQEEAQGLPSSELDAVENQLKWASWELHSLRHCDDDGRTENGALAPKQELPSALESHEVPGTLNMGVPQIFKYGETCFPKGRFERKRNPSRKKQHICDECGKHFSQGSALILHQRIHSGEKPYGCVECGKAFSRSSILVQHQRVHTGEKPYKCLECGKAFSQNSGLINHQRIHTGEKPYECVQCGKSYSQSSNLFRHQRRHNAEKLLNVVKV
UniProt O95159: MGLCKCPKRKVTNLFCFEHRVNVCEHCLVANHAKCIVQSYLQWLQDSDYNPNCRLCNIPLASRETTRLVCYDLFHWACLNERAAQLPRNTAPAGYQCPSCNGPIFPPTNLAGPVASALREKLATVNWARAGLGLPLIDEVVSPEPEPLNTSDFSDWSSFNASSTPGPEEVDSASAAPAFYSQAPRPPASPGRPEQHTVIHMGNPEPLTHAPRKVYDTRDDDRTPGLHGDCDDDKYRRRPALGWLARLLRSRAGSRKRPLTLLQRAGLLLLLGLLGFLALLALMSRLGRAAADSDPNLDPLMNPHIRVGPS
UniProt P13010: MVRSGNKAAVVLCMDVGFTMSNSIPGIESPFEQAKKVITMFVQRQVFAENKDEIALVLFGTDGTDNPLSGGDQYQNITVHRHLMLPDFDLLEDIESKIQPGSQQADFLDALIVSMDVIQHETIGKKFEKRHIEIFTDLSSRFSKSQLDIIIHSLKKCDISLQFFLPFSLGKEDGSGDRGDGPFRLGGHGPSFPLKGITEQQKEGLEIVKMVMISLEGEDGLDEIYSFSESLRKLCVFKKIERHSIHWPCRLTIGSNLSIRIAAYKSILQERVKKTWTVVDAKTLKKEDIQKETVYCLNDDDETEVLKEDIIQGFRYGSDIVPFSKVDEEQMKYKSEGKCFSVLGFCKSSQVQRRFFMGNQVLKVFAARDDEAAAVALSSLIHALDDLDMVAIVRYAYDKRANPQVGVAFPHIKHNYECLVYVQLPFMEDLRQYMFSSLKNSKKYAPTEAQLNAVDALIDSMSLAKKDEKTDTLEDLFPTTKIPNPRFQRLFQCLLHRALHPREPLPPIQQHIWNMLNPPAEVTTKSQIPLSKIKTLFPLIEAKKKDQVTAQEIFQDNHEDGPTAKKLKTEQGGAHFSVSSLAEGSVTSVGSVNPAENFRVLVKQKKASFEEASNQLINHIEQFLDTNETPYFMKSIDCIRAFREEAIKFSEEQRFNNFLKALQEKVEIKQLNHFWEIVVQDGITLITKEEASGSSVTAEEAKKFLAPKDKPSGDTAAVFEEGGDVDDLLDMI
UniProt Q96NC0: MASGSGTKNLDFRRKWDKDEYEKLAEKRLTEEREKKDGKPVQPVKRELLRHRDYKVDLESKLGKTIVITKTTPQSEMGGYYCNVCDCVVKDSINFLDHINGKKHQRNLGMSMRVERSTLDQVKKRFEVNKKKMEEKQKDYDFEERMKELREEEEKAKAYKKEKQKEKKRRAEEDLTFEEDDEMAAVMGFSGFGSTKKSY
UniProt P54577: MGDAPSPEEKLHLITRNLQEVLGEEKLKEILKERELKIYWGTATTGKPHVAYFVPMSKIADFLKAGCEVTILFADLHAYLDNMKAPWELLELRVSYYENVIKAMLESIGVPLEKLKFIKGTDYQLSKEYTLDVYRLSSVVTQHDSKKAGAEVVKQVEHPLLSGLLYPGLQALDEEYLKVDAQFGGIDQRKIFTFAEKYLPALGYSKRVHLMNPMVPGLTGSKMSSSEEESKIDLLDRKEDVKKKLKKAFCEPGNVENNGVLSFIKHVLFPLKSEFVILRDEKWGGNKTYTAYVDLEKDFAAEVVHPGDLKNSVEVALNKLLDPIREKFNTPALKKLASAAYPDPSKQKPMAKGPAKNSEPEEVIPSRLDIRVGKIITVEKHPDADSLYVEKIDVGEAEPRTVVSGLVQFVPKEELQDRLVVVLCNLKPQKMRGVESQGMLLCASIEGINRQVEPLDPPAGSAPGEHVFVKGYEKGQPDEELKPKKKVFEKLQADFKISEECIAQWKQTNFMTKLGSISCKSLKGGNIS
UniProt P12956: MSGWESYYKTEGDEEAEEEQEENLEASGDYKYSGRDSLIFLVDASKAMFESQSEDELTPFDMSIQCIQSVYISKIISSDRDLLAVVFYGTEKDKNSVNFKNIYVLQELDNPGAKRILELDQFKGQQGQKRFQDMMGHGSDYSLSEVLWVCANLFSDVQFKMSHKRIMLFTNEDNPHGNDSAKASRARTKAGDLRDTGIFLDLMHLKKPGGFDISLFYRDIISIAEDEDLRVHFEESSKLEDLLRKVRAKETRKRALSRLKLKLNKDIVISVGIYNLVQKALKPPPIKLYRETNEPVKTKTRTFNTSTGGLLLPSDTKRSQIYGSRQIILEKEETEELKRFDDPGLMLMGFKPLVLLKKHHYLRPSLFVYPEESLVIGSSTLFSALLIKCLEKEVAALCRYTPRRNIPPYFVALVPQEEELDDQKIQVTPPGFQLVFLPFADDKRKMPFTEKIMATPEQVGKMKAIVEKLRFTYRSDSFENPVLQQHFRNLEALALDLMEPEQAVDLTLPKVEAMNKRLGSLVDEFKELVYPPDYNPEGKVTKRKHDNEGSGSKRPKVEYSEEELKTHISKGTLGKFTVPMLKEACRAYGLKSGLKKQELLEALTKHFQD
UniProt Q9NQH7: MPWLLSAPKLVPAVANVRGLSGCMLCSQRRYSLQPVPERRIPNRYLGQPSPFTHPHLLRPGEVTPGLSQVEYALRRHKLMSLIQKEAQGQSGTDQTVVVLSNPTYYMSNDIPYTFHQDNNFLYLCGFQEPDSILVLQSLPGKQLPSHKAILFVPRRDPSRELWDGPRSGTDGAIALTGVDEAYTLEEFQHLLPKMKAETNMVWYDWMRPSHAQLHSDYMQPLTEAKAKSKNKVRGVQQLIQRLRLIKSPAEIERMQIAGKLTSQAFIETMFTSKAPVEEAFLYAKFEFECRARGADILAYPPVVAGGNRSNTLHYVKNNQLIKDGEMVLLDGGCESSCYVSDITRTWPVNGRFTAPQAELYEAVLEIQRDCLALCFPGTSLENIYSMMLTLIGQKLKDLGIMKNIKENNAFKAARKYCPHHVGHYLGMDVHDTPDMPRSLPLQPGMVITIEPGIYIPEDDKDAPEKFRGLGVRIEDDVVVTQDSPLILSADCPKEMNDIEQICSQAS
UniProt Q8WV99: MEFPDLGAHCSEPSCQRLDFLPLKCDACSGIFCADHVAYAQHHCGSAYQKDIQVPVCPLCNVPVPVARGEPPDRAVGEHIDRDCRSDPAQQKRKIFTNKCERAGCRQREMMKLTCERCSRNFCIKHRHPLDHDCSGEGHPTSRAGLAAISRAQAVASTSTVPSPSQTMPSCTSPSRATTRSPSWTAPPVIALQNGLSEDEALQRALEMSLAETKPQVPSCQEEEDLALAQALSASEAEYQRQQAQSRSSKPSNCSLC
UniProt Q8IUH5: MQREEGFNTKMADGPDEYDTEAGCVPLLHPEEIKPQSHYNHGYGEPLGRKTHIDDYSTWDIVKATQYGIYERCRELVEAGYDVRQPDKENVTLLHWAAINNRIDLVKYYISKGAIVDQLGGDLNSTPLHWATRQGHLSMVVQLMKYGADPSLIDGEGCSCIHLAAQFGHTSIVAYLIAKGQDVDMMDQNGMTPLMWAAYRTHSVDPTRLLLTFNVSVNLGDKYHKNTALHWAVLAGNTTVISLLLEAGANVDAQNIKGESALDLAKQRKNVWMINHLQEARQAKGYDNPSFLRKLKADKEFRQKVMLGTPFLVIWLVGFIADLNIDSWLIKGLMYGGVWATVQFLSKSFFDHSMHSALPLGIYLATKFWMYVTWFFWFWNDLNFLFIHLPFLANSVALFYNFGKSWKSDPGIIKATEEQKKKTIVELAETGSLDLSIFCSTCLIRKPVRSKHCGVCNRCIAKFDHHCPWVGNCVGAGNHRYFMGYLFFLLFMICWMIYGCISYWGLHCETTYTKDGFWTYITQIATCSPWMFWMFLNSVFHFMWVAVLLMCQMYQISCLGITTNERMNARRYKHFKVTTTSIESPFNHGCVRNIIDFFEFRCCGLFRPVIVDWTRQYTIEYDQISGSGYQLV
UniProt P31946: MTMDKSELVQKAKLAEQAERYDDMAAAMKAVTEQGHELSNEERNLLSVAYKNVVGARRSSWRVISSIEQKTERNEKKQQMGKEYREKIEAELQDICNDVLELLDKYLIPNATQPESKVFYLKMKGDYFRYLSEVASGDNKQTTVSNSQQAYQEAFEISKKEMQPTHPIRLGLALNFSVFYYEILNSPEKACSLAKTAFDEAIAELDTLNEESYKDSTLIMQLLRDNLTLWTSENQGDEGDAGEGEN
UniProt O14980, whole entry, looked up: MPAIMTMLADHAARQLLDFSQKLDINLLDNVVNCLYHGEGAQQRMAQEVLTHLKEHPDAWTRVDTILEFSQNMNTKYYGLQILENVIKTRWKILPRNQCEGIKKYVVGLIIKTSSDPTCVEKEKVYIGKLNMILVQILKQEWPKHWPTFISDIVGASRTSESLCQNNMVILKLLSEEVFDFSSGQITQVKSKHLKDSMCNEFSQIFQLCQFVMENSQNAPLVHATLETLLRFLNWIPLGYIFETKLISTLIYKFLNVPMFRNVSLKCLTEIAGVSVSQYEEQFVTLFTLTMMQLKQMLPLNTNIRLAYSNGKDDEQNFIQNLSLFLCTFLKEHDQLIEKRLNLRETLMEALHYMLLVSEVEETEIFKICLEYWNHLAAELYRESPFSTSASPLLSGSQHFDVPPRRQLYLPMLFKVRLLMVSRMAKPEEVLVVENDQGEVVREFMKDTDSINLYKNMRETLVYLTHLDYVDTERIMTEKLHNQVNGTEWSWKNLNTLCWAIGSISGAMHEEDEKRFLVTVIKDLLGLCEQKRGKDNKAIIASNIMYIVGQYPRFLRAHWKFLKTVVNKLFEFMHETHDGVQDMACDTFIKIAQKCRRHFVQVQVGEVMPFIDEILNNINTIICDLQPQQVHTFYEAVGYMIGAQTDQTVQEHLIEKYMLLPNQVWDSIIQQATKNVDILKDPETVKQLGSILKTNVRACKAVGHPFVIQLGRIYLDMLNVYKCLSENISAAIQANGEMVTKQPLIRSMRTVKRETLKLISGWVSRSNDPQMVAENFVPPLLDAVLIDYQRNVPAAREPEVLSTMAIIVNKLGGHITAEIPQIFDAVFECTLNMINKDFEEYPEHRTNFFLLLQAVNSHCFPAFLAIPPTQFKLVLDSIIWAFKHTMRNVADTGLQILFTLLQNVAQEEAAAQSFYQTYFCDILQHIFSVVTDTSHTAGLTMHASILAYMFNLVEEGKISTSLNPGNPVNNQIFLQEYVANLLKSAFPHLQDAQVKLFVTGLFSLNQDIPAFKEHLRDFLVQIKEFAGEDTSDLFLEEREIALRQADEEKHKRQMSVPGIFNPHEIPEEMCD
UniProt P67809, whole entry, looked up: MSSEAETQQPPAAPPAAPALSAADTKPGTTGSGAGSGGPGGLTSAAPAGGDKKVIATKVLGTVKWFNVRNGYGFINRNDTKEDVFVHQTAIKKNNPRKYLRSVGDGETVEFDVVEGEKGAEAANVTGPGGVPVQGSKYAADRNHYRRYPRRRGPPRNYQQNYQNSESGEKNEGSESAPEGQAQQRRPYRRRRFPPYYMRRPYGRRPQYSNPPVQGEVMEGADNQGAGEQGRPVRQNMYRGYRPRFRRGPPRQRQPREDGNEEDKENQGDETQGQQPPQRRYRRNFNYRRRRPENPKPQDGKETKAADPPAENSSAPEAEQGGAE
UniProt Q8IZN3: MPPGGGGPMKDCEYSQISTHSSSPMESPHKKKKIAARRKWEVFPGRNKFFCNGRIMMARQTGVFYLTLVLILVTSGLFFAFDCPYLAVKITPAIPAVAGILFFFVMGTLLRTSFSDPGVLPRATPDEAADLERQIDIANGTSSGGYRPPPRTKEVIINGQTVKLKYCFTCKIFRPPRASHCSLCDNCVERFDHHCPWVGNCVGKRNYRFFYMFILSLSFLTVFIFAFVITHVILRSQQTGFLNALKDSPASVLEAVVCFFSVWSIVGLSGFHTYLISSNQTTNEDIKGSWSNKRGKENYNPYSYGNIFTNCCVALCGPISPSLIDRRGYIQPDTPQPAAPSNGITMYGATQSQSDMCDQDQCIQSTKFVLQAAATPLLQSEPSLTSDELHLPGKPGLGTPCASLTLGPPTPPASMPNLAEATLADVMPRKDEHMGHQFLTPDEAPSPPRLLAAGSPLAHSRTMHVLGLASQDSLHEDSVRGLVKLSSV
UniProt Q9NRH1: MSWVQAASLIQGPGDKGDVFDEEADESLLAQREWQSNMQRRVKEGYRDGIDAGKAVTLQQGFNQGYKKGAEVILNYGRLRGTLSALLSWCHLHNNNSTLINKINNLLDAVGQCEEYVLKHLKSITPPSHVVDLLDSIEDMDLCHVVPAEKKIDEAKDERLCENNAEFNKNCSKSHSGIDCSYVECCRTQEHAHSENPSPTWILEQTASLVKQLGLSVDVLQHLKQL

Each target was assayed with CC1=CC=C(C=C1)SC2=C3C=C(SC3=CN=C2)C(=O)N (assay: log2 fold change, soluble protein after heating vs DMSO (PISA); higher = thermal stabilisation; K562 cells, 10 uM, 30 min; active = over 0.2 and 3.5 SD of the protein, either way, in both replicates (recomputed)).
Method in brief: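 Values are thermal stability changes relative to control samples and are taken from duplicates. They are stated as log2 fold changes. Before quantification by TMTpro 16plex LC-MS/MS with equalised channel sums, K562 cells at 2×10^6 cells/mL were treated with 10 μM compound for 30 min, heated in aliquots for 3 min across 48°C-58°C, pooled, extracted in PBS with 0.5% NP-40 at 4°C, and centrifuged at 21,000xg for 90 min to give the soluble supernatant.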

| Target | log2 fold change |
| --- | --- |
| YJU2 (UniProt Q9BW85) | inactive: -0.004 |
| ZFAND5 (UniProt O76080) | inactive: -0.047 |
| ZNF24 (UniProt P17028) | inactive: -0.064 |
| ZFPL1 (UniProt O95159) | inactive: 0.008 |
| ZMYM3 (UniProt Q14202) | inactive: -0.07 |
| XRCC5 (UniProt P13010) | inactive: 0.044 |
| ZMAT2 (UniProt Q96NC0) | inactive: 0.113 |
| YARS (UniProt P54577) | inactive: 0.047 |
| YIPF4 (UniProt Q9BSR8) | inactive: -0.023 |
| ZFP91 (UniProt Q96JP5) | inactive: -0.025 |
| XRCC6 (UniProt P12956) | inactive: 0.022 |
| YY1 (UniProt P25490) | inactive: 0.01 |
| ZFYVE9 (UniProt O95405) | inactive: -0.011 |
| XPNPEP3 (UniProt Q9NQH7) | inactive: 0.005 |
| ZFAND2B (UniProt Q8WV99) | inactive: 0.038 |
| ZDHHC17 (UniProt Q8IUH5) | inactive: 0.038 |
| YWHAB (UniProt P31946) | inactive: -0.033 |
| XPO1 (UniProt O14980) | inactive: 0.025 |
| ZNF143 (UniProt P52747) | inactive: -0.042 |
| YBX1 (UniProt P67809) | inactive: -0.124 |
| ZER1 (UniProt Q7Z7L7) | inactive: -0.085 |
| ZDHHC14 (UniProt Q8IZN3) | inactive: -0.078 |
| YWHAQ (UniProt P27348) | inactive: 0.079 |
| YAE1 (UniProt Q9NRH1) | inactive: -0.012 |

A portion from the list above, for reference:

| Target | log2 fold change |
| --- | --- |
| ZNF24 (UniProt P17028) | inactive: -0.064 |
| ZFPL1 (UniProt O95159) | inactive: 0.008 |
